PubChem BioAssay AID1671195 – Yale University, 2021
This is one part, drawn at random, of about 22,000 reagents tested. About 1,510 of them (6.9%) were called active. 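Active includes knockdowns raising or lowering LDL uptake; positive z-scores mean more uptake, negative mean less.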 A number with no mark means an inactive call.

Test: 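Knockdowns that increase or decrease uptake of fluorescent LDL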 (primary screen)
System: human Huh7 hepatoma cells
Reagent: siRNA pool against human genes, 18 nM
Time to read-out: about 2 to 2.5 days of knockdown, then 8 h LDL uptake
Conditions: DiI-labelled LDL at 30 µg/ml for 8 h, in lipoprotein-deficient serum medium
Measured: 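Per-cell DiI-LDL intensity by automated imaging; well means scaled to the plate median and given as a robust z-score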
Direction: robust z-score: higher = more LDL uptake after knockdown
Active means: 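Active when two or more replicates show a robust z-score above 2 or below -2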

SLC6A7 scored robust z-score, replicate 1 = 0.629; robust z-score, replicate 2 = 0.51; robust z-score, replicate 3 = 0.632.
Against XPO5, the values are robust z-score, replicate 1 = -2.13; robust z-score, replicate 2 = -1.37; robust z-score, replicate 3 = -1.44.
After knock-down of LINC01587 the results were robust z-score, replicate 1 = 0.701; robust z-score, replicate 2 = 0.176; robust z-score, replicate 3 = 0.58.
With knock-down of DAND5, the record shows robust z-score, replicate 1 = -0.422; robust z-score, replicate 2 = -0.425; robust z-score, replicate 3 = -0.665.
For CEP76 the deposit lists robust z-score, replicate 1 = -1.45; robust z-score, replicate 2 = -0.59; robust z-score, replicate 3 = -0.553.
After knock-down of TTC8 the results were robust z-score, replicate 1 = -0.46; robust z-score, replicate 2 = -0.288; robust z-score, replicate 3 = 0.0899.
Against POGLUT3, the entry reads robust z-score, replicate 1 = -0.807; robust z-score, replicate 2 = -0.474; robust z-score, replicate 3 = -0.849.
Silencing of HMGB4 resulted in: robust z-score, replicate 1 = -0.886; robust z-score, replicate 2 = -1.04; robust z-score, replicate 3 = -1.64.
Silencing of APC2 resulted in: robust z-score, replicate 1 = -1.2; robust z-score, replicate 2 = -0.804; robust z-score, replicate 3 = -1.09.
MBNL1-AS1 gave robust z-score, replicate 1 = 1.59; robust z-score, replicate 2 = 1.14; robust z-score, replicate 3 = 0.84.
With knock-down of C11orf42 the results were robust z-score, replicate 1 = -1.95; robust z-score, replicate 2 = -0.692; robust z-score, replicate 3 = -1.8.
Depletion of MAF1 gave: robust z-score, replicate 1 = -1.5; robust z-score, replicate 2 = -0.88; robust z-score, replicate 3 = -1.69.
SNIP1 gave robust z-score, replicate 1 = -0.244; robust z-score, replicate 2 = -0.916; robust z-score, replicate 3 = -0.321.
For KIAA0513, the values are robust z-score, replicate 1 = 0.774; robust z-score, replicate 2 = -0.948; robust z-score, replicate 3 = -0.713.
For RIMOC1 the deposit lists robust z-score, replicate 1 = -0.195; robust z-score, replicate 2 = -0.666; robust z-score, replicate 3 = -0.443.
With knock-down of SH2D4A, the screen gave robust z-score, replicate 1 = -0.829; robust z-score, replicate 2 = -0.688; robust z-score, replicate 3 = -0.835.
For COX19, the values are robust z-score, replicate 1 = -0.606; robust z-score, replicate 2 = -0.45; robust z-score, replicate 3 = -0.621.
For KRT76, the entry reads robust z-score, replicate 1 = -0.539; robust z-score, replicate 2 = -0.0457; robust z-score, replicate 3 = -0.889.
Silencing of TFE3 came out at: robust z-score, replicate 1 = 0.8; robust z-score, replicate 2 = 0.76; robust z-score, replicate 3 = 0.694.
Silencing of LPAR2 came out at: robust z-score, replicate 1 = -0.7; robust z-score, replicate 2 = -0.17; robust z-score, replicate 3 = -0.814.
LOC442437 (retired record) showed robust z-score, replicate 1 = 1.27; robust z-score, replicate 2 = 0.867; robust z-score, replicate 3 = 0.828.
Knock-down of UGT1A8 gave: robust z-score, replicate 1 = 0.631; robust z-score, replicate 2 = 0.736; robust z-score, replicate 3 = 1.09.
After knock-down of FAM133B the results were robust z-score, replicate 1 = 0.747; robust z-score, replicate 2 = 0.926; robust z-score, replicate 3 = 0.774.
For JPT2, the values are robust z-score, replicate 1 = 2.04 (active); robust z-score, replicate 2 = 2.31; robust z-score, replicate 3 = 2.23.
SERPINB13 showed robust z-score, replicate 1 = 0.651; robust z-score, replicate 2 = 0.158; robust z-score, replicate 3 = 0.79.
Knock-down of UPP1 gave: robust z-score, replicate 1 = 1.42; robust z-score, replicate 2 = 0.927; robust z-score, replicate 3 = 1.18.
TMTC3 scored robust z-score, replicate 1 = -1.96; robust z-score, replicate 2 = -1.29; robust z-score, replicate 3 = -1.54.
With knock-down of ITGA4 the results were robust z-score, replicate 1 = 0.374; robust z-score, replicate 2 = -0.803; robust z-score, replicate 3 = 0.185.
After knock-down of MYO9B the results were robust z-score, replicate 1 = -0.786; robust z-score, replicate 2 = -0.558; robust z-score, replicate 3 = -0.58.
For ZP1, the entry reads robust z-score, replicate 1 = 1.33 (active); robust z-score, replicate 2 = 2.12; robust z-score, replicate 3 = 1.92.

Sorted by “robust z-score, replicate 2” (ascending): some entries from above.
CEP76 | robust z-score, replicate 1: -1.45; robust z-score, replicate 2: -0.59; robust z-score, replicate 3: -0.553
POGLUT3 | robust z-score, replicate 1: -0.807; robust z-score, replicate 2: -0.474; robust z-score, replicate 3: -0.849
DAND5 | robust z-score, replicate 1: -0.422; robust z-score, replicate 2: -0.425; robust z-score, replicate 3: -0.665
TTC8 | robust z-score, replicate 1: -0.46; robust z-score, replicate 2: -0.288; robust z-score, replicate 3: 0.0899
LINC01587 | robust z-score, replicate 1: 0.701; robust z-score, replicate 2: 0.176; robust z-score, replicate 3: 0.58
